Patent publication US20250145665A1, “MACROCYCLIC PEPTIDES USEFUL AS MODULATORS OF TNF ALPHA” (Bristol-Myers Squibb Company, priority 2023, published 2025)
Where two headings read alike, the source gives them in different places. Some results were stated once for a whole list of compounds, not compound by compound. Starred links: 1 amine or outer side, 2 acyl side, 3 side chain; linkers in the order of their positions; H or OH if unused. Positions of bridges follow the written chain, without caps; N, C: chain ends. Non-standard residues stand in square brackets, D forms with d. Residues, ends and D or L forms follow the SMILES beside them. *: point of attachment. X39 = Cn1nc(C(=O)NCc2ccc(-c3ccc(C[C@H](N[*:1])C(=O)[*:2])cc3)cc2)c2ccccc21; X10 = Cn1cc(C(=O)Nc2ccc(-c3ccc(C[C@H](N[*:1])C(=O)[*:2])cc3)cc2)c2ccccc21; X5 = Cn1nc(C(=O)Nc2ccc(-c3ccc(C[C@H](N[*:1])C(=O)[*:2])cc3)cc2)c2ccccc21; dArg(Nω-CH2C6H4-3-CH2Gua) = N=C(N)NCc1cccc(CNC(=N)NCCC[C@@H](N)C(=O)O)c1; X21 = N=C(NCCC[C@@H](N[*:1])C(=O)[*:2])NC[C@H](O)[C@@H](O)[C@@H](O)CO; Bip(4'-NHBz) = N[C@@H](Cc1ccc(-c2ccc(NC(=O)c3ccccc3)cc2)cc1)C(=O)O; Bip(4'-NH) = O=C([C@H](Cc1ccc(-c2ccc(N[*:3])cc2)cc1)N[*:1])[*:2]; X45 = CS(=O)(=O)Nc1ccc(CNC(=N)NCCC[C@@H](N[*:1])C(=O)[*:2])cc1; dArg(ω-(3-HO-benzyl)) = N=C(NCCC[C@@H](N)C(=O)O)NCc1cccc(O)c1; Bip(4'-CONHMe) = CNC(=O)c1ccc(-c2ccc(C[C@H](N)C(=O)O)cc2)cc1; dArg(ω-Bn(3-CH2OH)) = N=C(NCCC[C@@H](N)C(=O)O)NCc1cccc(CO)c1; Indazole3carbonyl(1-CH2COOH) = O=C(O)Cn1nc(C(=O)*)c2ccccc21; Bip(4'-COOH) = N[C@@H](Cc1ccc(-c2ccc(C(=O)O)cc2)cc1)C(=O)O; Indole3carbonyl(1-CH2COOH) = O=C(O)Cn1cc(C(=O)*)c2ccccc21; X6 = N=C(NCCCCC(N)=O)NCCC[C@@H](N[*:1])C(=O)[*:2]; Ala(imidazol-2-yl) = N[C@@H](Cc1ncc[nH]1)C(=O)O; Ala(morpholin-4-yl) = N[C@@H](CN1CCOCC1)C(=O)O; X12 = N=C(NCCO)NCCC[C@@H](N[*:1])C(=O)[*:2]; Bip = N[C@@H](Cc1ccc(-c2ccccc2)cc1)C(=O)O; 2Pal = N[C@@H](Cc1ccccn1)C(=O)O; Tic = O=C(O)[C@@H]1Cc2ccccc2CN1; 2Thi = N[C@@H](Cc1cccs1)C(=O)O; Cha = N[C@@H](CC1CCCCC1)C(=O)O; Chg = N[C@H](C(=O)O)C1CCCCC1; Sar = CNCC(=O)O

The chains behind the UniProt entries cited, without tags or fusion partners. Residues count along the entry.
UniProt P01375, 77-233 limits assumed: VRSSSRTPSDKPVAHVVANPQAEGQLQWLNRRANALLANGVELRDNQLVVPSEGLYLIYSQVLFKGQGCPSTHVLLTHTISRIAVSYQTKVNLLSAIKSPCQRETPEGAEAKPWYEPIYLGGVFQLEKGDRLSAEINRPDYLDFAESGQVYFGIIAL

Target: TNFα (Homo sapiens, UniProt P01375)
Assay: TNF-Induced HEK-Blue Assay
Assay type: cell-based
Conditions: read-out: IC50 values measured in the TNF induced HEK-Blue assay
[1] = summary statement for all examples

SMILES	IC50 [1]	IC50
CC[C@H](C)[C@@H]1NC(=O)[C@@H](CCCNC(=N)NCc2cccc(CNC(=N)N)c2)NC(=O)[C@H](CC(=O)O)NC(=O)[C@@H]2CCCN2C(=O)CN(C)C(=O)[C@H](Cc2ccc(-c3ccc(NC(=O)c4nn(CC(=O)O)c5ccccc45)cc3)cc2)NC(=O)[C@H](Cc2ccc(-c3ccccc3)cc2)NC(=O)[C@H](CN2CCOCC2)NC(=O)CSC[C@@H](C(=O)NCC(N)=O)NC(=O)[C@H](CC(C)C)NC(=O)[C@H](Cc2cnc[nH]2)NC(=O)[C@H](C(C)C)NC(=O)[C@@H]2CCCN2C1=O [Example 598] ({CH2CO}-[Ala(morpholin-4-yl)][Bip][Bip(4'-NH)](Indazole3carbonyl(1-CH2COOH))[Sar]PD[dArg(Nω-CH2C6H4-3-CH2Gua)]IPVHLCG-NH2; thioether N-13)	≤ 25 µM	–
CC[C@H](C)[C@@H]1NC(=O)[C@@H](CCCNC(=N)N)NC(=O)[C@H](CC(=O)O)NC(=O)[C@H](Cc2cnc[nH]2)NC(=O)CN(C)C(=O)[C@H](Cc2ccc(-c3ccc(NC(=O)c4ccccc4)cc3)cc2)NC(=O)[C@H](Cc2ccc(-c3ccc(C(=O)O)cc3)cc2)NC(=O)[C@H](CC2CCCCC2)NC(=O)CSC[C@@H](C(=O)NCC(N)=O)NC(=O)[C@H](CC(C)C)NC(=O)[C@H](Cc2cnc[nH]2)NC(=O)[C@H](C(C)C)NC(=O)[C@@H]2Cc3ccccc3CN2C1=O [Example 370] ({CH2CO}-[Cha][Bip(4'-COOH)][Bip(4'-NHBz)][Sar]HD[dR]I[Tic]VHLCG-NH2; thioether N-13)	≤ 25 µM	–
CC[C@H](C)[C@@H]1NC(=O)[C@@H](CCCNC(=N)NCc2cccc(CO)c2)NC(=O)[C@H](CC(=O)O)NC(=O)[C@H](Cc2cnc[nH]2)NC(=O)CN(C)C(=O)[C@H](Cc2ccc(-c3ccc(NC(=O)c4nn(CC(=O)O)c5ccccc45)cc3)cc2)NC(=O)[C@H](Cc2ccc(-c3ccccc3)cc2)NC(=O)[C@H](CC2CCCCC2)NC(=O)CSC[C@@H](C(=O)NCC(N)=O)NC(=O)[C@H](CC(C)C)NC(=O)[C@H](Cc2cnc[nH]2)NC(=O)[C@H](C(C)C)NC(=O)[C@@H]2CCCN2C1=O [Example 477] ({CH2CO}-[Cha][Bip][Bip(4'-NH)](Indazole3carbonyl(1-CH2COOH))[Sar]HD[dArg(ω-Bn(3-CH2OH))]IPVHLCG-NH2; thioether N-13)	≤ 25 µM	–
CC(C)C[C@@H]1NC(=O)[C@H](Cc2ncc[nH]2)NC(=O)[C@H](C(C)C)NC(=O)[C@@H]2CCCN2C(=O)[C@H](C(C)C)NC(=O)[C@@H](CCCNC(=N)NCc2cccc(CNC(=N)N)c2)NC(=O)[C@H](CC(=O)O)NC(=O)[C@H](Cc2ccccn2)NC(=O)CN(C)C(=O)[C@H](Cc2ccc(-c3ccc(NC(=O)c4cn(CC(=O)O)c5ccccc45)cc3)cc2)NC(=O)[C@H](Cc2ccc(-c3ccc(C(=O)O)cc3)cc2)NC(=O)[C@H](CC2CCCCC2)NC(=O)CSC[C@@H](C(=O)NCC(N)=O)NC1=O [Example 557] ({CH2CO}-[Cha][Bip(4'-COOH)][Bip(4'-NH)](Indole3carbonyl(1-CH2COOH))[Sar][2Pal]D[dArg(Nω-CH2C6H4-3-CH2Gua)]VPV[Ala(imidazol-2-yl)]LCG-NH2; thioether N-13)	≤ 25 µM	–
CC(C)C[C@@H]1NC(=O)[C@H](CCCNC(=N)N)NC(=O)[C@H](C(C)C)NC(=O)[C@@H]2CCCN2C(=O)[C@H](C(C)C)NC(=O)[C@@H](CCCNC(=N)N)NC(=O)[C@H](CC(=O)O)NC(=O)[C@@H]2CCCN2C(=O)CN(C)C(=O)[C@H](Cc2ccc(-c3ccc(NC(=O)c4cn(C)c5ccccc45)cc3)cc2)NC(=O)[C@H](Cc2ccc(-c3ccccc3)cc2)NC(=O)[C@H](CN2CCOCC2)NC(=O)CSC[C@@H](C(=O)NCC(N)=O)NC1=O [Example 348] ({CH2CO}-[Ala(morpholin-4-yl)][Bip][X10][Sar]PD[dR]VPVRLCG-NH2; thioether N-13)	–	≤ 25 µM
CC(C)C[C@@H]1NC(=O)[C@H](CCCNC(=N)N)NC(=O)[C@H](C(C)C)NC(=O)[C@@H]2CCCN2C(=O)[C@H](C(C)C)NC(=O)[C@@H](CCCNC(=N)NCc2ccc(NS(C)(=O)=O)cc2)NC(=O)[C@H](CC(=O)O)NC(=O)[C@@H]2CCCN2C(=O)CN(C)C(=O)[C@H](Cc2ccc(-c3ccc(NC(=O)c4nn(CC(=O)O)c5ccccc45)cc3)cc2)NC(=O)[C@H](Cc2ccc(-c3ccccc3)cc2)NC(=O)[C@H](CN2CCOCC2)NC(=O)CSC[C@@H](C(=O)NCC(N)=O)NC1=O [Example 427] ({CH2CO}-[Ala(morpholin-4-yl)][Bip][Bip(4'-NH)](Indazole3carbonyl(1-CH2COOH))[Sar]PD[X45]VPVRLCG-NH2; thioether N-13)	≤ 25 µM	–
CC(C)C[C@@H]1NC(=O)[C@H](CCCNC(=N)N)NC(=O)[C@H](C(C)C)NC(=O)[C@@H]2CCCN2C(=O)[C@H](C(C)C)NC(=O)[C@@H](CCCNC(=N)NCCCCC(N)=O)NC(=O)[C@H](CC(=O)O)NC(=O)[C@@H]2CCCN2C(=O)CN(C)C(=O)[C@H](Cc2ccc(-c3ccc(NC(=O)c4nn(C)c5ccccc45)cc3)cc2)NC(=O)[C@H](Cc2ccc(-c3ccccc3)cc2)NC(=O)[C@H](CN2CCOCC2)NC(=O)CSC[C@@H](C(=O)NCC(N)=O)NC1=O [Example 392] ({CH2CO}-[Ala(morpholin-4-yl)][Bip][X5][Sar]PD[X6]VPVRLCG-NH2; thioether N-13)	–	≤ 25 µM
CNC(=O)c1ccc(-c2ccc(C[C@@H]3NC(=O)[C@H](CN4CCOCC4)NC(=O)CSC[C@@H](C(=O)NCC(N)=O)NC(=O)[C@H](CC(C)C)NC(=O)[C@H](CCCNC(=N)N)NC(=O)[C@H](C(C)C)NC(=O)[C@@H]4CCCN4C(=O)[C@H](C(C)C)NC(=O)[C@@H](CCCNC(=N)NCc4cccc(CO)c4)NC(=O)[C@H](CC(=O)O)NC(=O)[C@@H]4CCCN4C(=O)CN(C)C(=O)[C@H](Cc4ccc(-c5ccc(NC(=O)c6nn(CC(=O)O)c7ccccc67)cc5)cc4)NC3=O)cc2)cc1 [Example 426] ({CH2CO}-[Ala(morpholin-4-yl)][Bip(4'-CONHMe)][Bip(4'-NH)](Indazole3carbonyl(1-CH2COOH))[Sar]PD[dArg(ω-Bn(3-CH2OH))]VPVRLCG-NH2; thioether N-13)	≤ 25 µM	–
CC(C)C[C@@H]1NC(=O)[C@H](CCCNC(=N)N)NC(=O)[C@H](C(C)C)NC(=O)[C@@H]2CCCN2C(=O)[C@H](C(C)C)NC(=O)[C@@H](CCCNC(=N)NCCO)NC(=O)[C@H](CC(=O)O)NC(=O)[C@@H]2CCCN2C(=O)CN(C)C(=O)[C@H](Cc2ccc(-c3ccc(NC(=O)c4nn(C)c5ccccc45)cc3)cc2)NC(=O)[C@H](Cc2ccc(-c3ccccc3)cc2)NC(=O)[C@H](CN2CCOCC2)NC(=O)CSC[C@@H](C(=O)NCC(N)=O)NC1=O [Example 388] ({CH2CO}-[Ala(morpholin-4-yl)][Bip][X5][Sar]PD[X12]VPVRLCG-NH2; thioether N-13)	–	≤ 25 µM
CC[C@H](C)[C@@H]1NC(=O)[C@@H]2CCCN2C(=O)[C@H]([C@@H](C)CC)NC(=O)[C@@H](CCCNC(=N)N)NC(=O)[C@H](CC(=O)O)NC(=O)[C@H](Cc2ccccc2)NC(=O)CN(C)C(=O)[C@H](Cc2ccc(-c3ccc(CNC(=O)c4nn(C)c5ccccc45)cc3)cc2)NC(=O)[C@H](Cc2ccc(-c3ccccc3)cc2)NC(=O)[C@H](CC2CCCCC2)NC(=O)CSC[C@@H](C(=O)NCC(N)=O)NC(=O)[C@H](CC(C)C)NC(=O)[C@H](Cc2cnc[nH]2)NC1=O [Example 400] ({CH2CO}-[Cha][Bip][X39][Sar]FD[dR]IPIHLCG-NH2; thioether N-13)	–	≤ 25 µM
CC[C@H](C)[C@@H]1NC(=O)[C@@H](CCCNC(=N)NC[C@H](O)[C@@H](O)[C@@H](O)CO)NC(=O)[C@H](CC(=O)O)NC(=O)[C@@H]2CCCN2C(=O)CN(C)C(=O)[C@H](Cc2ccc(-c3ccc(NC(=O)c4nn(CC(=O)O)c5ccccc45)cc3)cc2)NC(=O)[C@H](Cc2ccc(-c3ccccc3)cc2)NC(=O)[C@H](CN2CCOCC2)NC(=O)CSC[C@@H](C(=O)NCC(N)=O)NC(=O)[C@H](CC(C)C)NC(=O)[C@H](Cc2cnc[nH]2)NC(=O)[C@H](C(C)C)NC(=O)[C@@H]2CCCN2C1=O [Example 599] ({CH2CO}-[Ala(morpholin-4-yl)][Bip][Bip(4'-NH)](Indazole3carbonyl(1-CH2COOH))[Sar]PD[X21]IPVHLCG-NH2; thioether N-13)	≤ 25 µM	–
CC(C)C[C@@H]1NC(=O)[C@H](CCCNC(=N)N)NC(=O)[C@H](C(C)C)NC(=O)[C@@H]2CCCN2C(=O)[C@H](C(C)C)NC(=O)[C@@H](CCCNC(=N)N)NC(=O)[C@H](CC(=O)O)NC(=O)[C@@H]2CCCN2C(=O)CN(C)C(=O)[C@H](Cc2ccc(-c3ccc(NC(=O)c4nn(CC(=O)O)c5ccccc45)cc3)cc2)NC(=O)[C@H](Cc2ccc(-c3ccccc3)cc2)NC(=O)[C@H](CN2CCOCC2)NC(=O)CSC[C@@H](C(=O)NCC(N)=O)NC1=O [Example 333] ({CH2CO}-[Ala(morpholin-4-yl)][Bip][Bip(4'-NH)](Indazole3carbonyl(1-CH2COOH))[Sar]PD[dR]VPVRLCG-NH2; thioether N-13)	≤ 25 µM	–
CC(C)C[C@@H]1NC(=O)[C@H](Cc2cccs2)NC(=O)[C@H](C(C)C)NC(=O)[C@@H]2CCCN2C(=O)[C@H](C(C)C)NC(=O)[C@@H](CCCNC(=N)NCc2cccc(O)c2)NC(=O)[C@H](CC(=O)O)NC(=O)[C@H](Cc2ccccn2)NC(=O)CN(C)C(=O)[C@H](Cc2ccc(-c3ccc(NC(=O)c4nn(CC(=O)O)c5ccccc45)cc3)cc2)NC(=O)[C@H](Cc2ccc(-c3ccccc3)cc2)NC(=O)[C@H](CN2CCOCC2)NC(=O)CSC[C@@H](C(=O)NCC(N)=O)NC1=O [Example 626] ({CH2CO}-[Ala(morpholin-4-yl)][Bip][Bip(4'-NH)](Indazole3carbonyl(1-CH2COOH))[Sar][2Pal]D[dArg(ω-(3-HO-benzyl))]VPV[2Thi]LCG-NH2; thioether N-13)	≤ 25 µM	–
CC(C)C[C@@H]1NC(=O)[C@H](Cc2c[nH]cn2)NC(=O)[C@H](C2CCCCC2)NC(=O)[C@@H]2CCCN2C(=O)[C@H](C(C)C)NC(=O)[C@@H](CCCNC(=N)N)NC(=O)[C@H](CC(=O)O)NC(=O)[C@H](Cc2cnc[nH]2)NC(=O)CN(C)C(=O)[C@H](Cc2ccc(-c3ccc(NC(=O)c4ccccc4)cc3)cc2)NC(=O)[C@H](Cc2ccc(-c3ccccc3)cc2)NC(=O)[C@H](CC2CCCCC2)NC(=O)CSC[C@@H](C(=O)NCC(N)=O)NC1=O [Example 513] ({CH2CO}-[Cha][Bip][Bip(4'-NHBz)][Sar]HD[dR]VP[Chg]HLCG-NH2; thioether N-13)	≤ 25 µM	–
